Measurements reported in paper PMC6271229 (2014).
Some peptides are written in HELM: one residue between dots, names in brackets for other building blocks, links after the first $.

Assay: general procedure: Fmoc solid-phase peptide synthesis; trityl chloride resin
Conditions: whole synthesis, analytical HPLC (Thermo Hypersil Gold C18, 150 × 4.6 mm)

## PEPTIDE1{W.R.W.R.W.R.W.R.W.R}$PEPTIDE1,PEPTIDE1,1:R1-10:R2$$$V2.0
  final HPLC purity: >95%
